Experimental data taken from PMC11873038.
No constants are given. Whether binding was seen depends on the method and setting. Binding seen in cells or lysates may run through a third protein. Some entries that bind do so weakly or less than the wild type. Each block holds one molecule with its values, some of them ahead of it.

Sequences of proteins named here, by UniProt entry; tags and fusion partners are left off. Residues count along the entry.
UniProt P78556, residues 27-96: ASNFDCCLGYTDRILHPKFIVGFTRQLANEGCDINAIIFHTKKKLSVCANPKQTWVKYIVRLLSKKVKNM

Molecular target: T1, proteinase 3 (PR3), endogenously secreted by THP-1 cells (human (endogenous in THP-1)) (UniProt P24158)
T1 sequence: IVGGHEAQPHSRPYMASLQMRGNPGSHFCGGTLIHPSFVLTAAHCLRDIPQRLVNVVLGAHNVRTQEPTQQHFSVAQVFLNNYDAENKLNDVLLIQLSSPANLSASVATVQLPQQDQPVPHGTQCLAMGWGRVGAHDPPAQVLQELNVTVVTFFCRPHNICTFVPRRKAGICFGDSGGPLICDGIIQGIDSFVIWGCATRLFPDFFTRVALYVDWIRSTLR
Assay: co-IP + peptide or protein array; co-immunoprecipitation of endogenously secreted PR3 from conditioned medium of LPS-stimulated (CM-LPS) and nonstimulated (CM-CTRL) THP-1 cells, followed by a human cytokine array

binding: binds
Molecule: CCL20 in conditioned medium of THP-1 cells (from UniProt P78556 27-96)

binding: binds
B1: interleukin (IL)-32 in conditioned medium of THP-1 cells (protein, UniProt P24001 31-234)
chain: AWVSACDTEDTVGHLGPWRDKDPALWCQLCLSSQHQAIERFYDKMQNAESGRGQVMSSLAELEDDFKEGYLETVAAYYEEQHPELTPLLEKERDGLRCRGNRSPVPDVEDPATEEPGESFCDKVMRWFQAMLQRLQTWWHGVLAWVKEKVVALVHAVQALWKQFQSFCCSLSELFMSSFQSYGAPRGDKEELTPQKCSEPQSSK
